Data reported in paper PMC11361582.
Results are given in words; binding and its absence hold for the method and conditions named. Binding seen in cells or lysates may run through a third protein. A result given as binding can be weak or reduced; the word gives no strength. Sequences can lack the tags named with a protein.

Columns and labels:
Experiment in all cases: pull-down; GST-tagged bait and N-terminally 6xHis-tagged prey co-expressed in one E. coli BL21 DE3 strain; lysate (0.1 x PBS, 50 mM EDTA, 1 mM DTT, about 1% Triton X-100; ATP and MgSO4 added, 37°C 10 min) bound to glutathione agarose 15 min at room temperature; washed 8 times with 50 mM Tris-Cl, 300 mM NaCl, 50 mM EDTA, pH 7.5 and twice with PBS; bound beads analysed by immunoblot with anti-GST and anti-His antibodies
[1] = target: GST-tagged B. burgdorferi TamB DUF490 domain (aa 1117-1443) (Borreliella burgdorferi B31)
[2] = target: GST-tagged BbDUF490 Segment 1 (TamB aa 1117-1221) (Borreliella burgdorferi B31)
[3] = target: GST-tagged BbDUF490 Segment 2 (TamB aa 1222-1334) (Borreliella burgdorferi B31)
[4] = target: GST-tagged BbDUF490 Segment 3 (TamB aa 1335-1443) (Borreliella burgdorferi B31)

Measured: binding

B1: 6xHis-tagged B. burgdorferi BamB (protein, UniProt O51059 26-349)
chain: SSESIFSQLGNLQKIKHEYNILGSSSPRGISLVGETLYIAAMHLFKKENGKIEKIDLSNSYEFINDIVNISGKTYLLAQNKEEELEVCELNGKDWTLKFKKPLKAYKFLKSVGRDGVKEAYILAIDKNNREKIFDLQGSDKTPPQATENDKFYQISNEENLITGNSLKIWQMNNNTYTNIDYQQAKEIMPIIKTSIRGSSEVLVMTGGYNNLDTKFKVYSNTNNYTTPIFIQDEVGEFSSYFAREFNDAILIGSNNGFAEFTKNKEGIFALRAPSKSVEPGAYNGSQLSKTGLNDIIPVSNNTIYILTQGKGLWKLENRKLTKE
binds: all assays above
